## Library compounds against nucleic acid targets

Calls as published in the ROBIN set (doi:10.1002/anie.202211358).

Targets (5′ to 3′):
T1: TPP riboswitch RNA three-way junction, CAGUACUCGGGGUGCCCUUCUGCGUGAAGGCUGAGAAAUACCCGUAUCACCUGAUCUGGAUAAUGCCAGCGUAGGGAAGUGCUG. About 24,000 compounds screened, about 160 hits.
T2: PreQ1 riboswitch RNA pseudoknot, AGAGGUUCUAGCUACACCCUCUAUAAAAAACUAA. From B. subtilis. About 24,000 compounds screened, about 170 hits.
T3: SAM-II riboswitch RNA pseudoknot, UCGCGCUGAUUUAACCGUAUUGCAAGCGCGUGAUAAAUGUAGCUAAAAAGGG. About 21,000 compounds screened, about 200 hits.

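Compounds were printed on reactive glass slides in duplicate spots, a dye-labelled oligonucleotide was laid over them, and the fluorescence left after washing was read. The data file lists only calls. An earlier report of the laboratory on the PreQ1, TPP and SAM-II riboswitches (doi:10.1038/s41467-019-09493-3) used 1 µM RNA for 2 h and required a mean Z-score above 3 (spot signal-to-noise against the whole library), a score well above that on a control array, and duplicate spots agreeing (coefficient of variation under 100); it then also set aside compounds that hit other targets, which this list keeps. The cut-offs behind this list may differ. A missing hit is not proof of no binding, and a hit is not a measured affinity.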 Key: 1 = hit, 0 = tested without a hit. Compounds were drawn at random from those tested, without regard to their results. A dash means that no call is listed here.

| # | Compound | T1 | T2 | T3 |
|---|---|---|---|---|
| 1 | `CC(=O)Nc1ccc(OCC(O)Cn2cncn2)cc1` (centres undefined) | 0 | 0 | 0 |
| 2 | `CCOc1ccc(-c2noc(-c3nnn(-c4cc(C)ccc4OC)c3N)n2)cc1` | 0 | 0 | - |
| 3 | `Cc1ccccc1CN(CCO)C(=O)CCc1n[nH]c2c1CCCC2` | 0 | 0 | 0 |
| 4 | `CCCCN1CCN(CC2CCNCC2)CC1=O` | 0 | 0 | 0 |
| 5 | `Nc1cc2c(cc1C(=O)c1ccccc1Br)OCCO2` | 0 | 0 | 0 |
| 6 | `CCN(C(=O)c1cc(COc2ccc3c(c2)OCO3)[nH]n1)[C@H]1COC[C@@H]1O` | 0 | 0 | 0 |
| 7 | `CC(C)OC(=O)C1=C(N)Oc2c(oc(CO)cc2=O)C1c1ccccc1F` (centres undefined) | 0 | 0 | 0 |
| 8 | `O=C(CCc1ccc(O)cc1)c1c(O)cc(O)cc1O` | 0 | 0 | 0 |
| 9 | `CN(C)CCCNc1oc(-c2ccc(S(=O)(=O)N(C)C)cc2)nc1C#N` | 0 | 0 | - |
| 10 | `Cc1c(NCc2ccccn2)cccc1C(=O)Nc1cnc2n1CCCC2` | 0 | 0 | 1 |
| 11 | `CCCCNc1nc(Oc2ccc(O)nn2)nc(N(C)C)n1` | 0 | 0 | - |
| 12 | `COc1ccc(CNCc2cc(C)c(OC)cc2C)cc1` | 0 | 0 | 0 |
| 13 | `OC(Cn1cncn1)(Cn1cncn1)c1ccc(F)cc1F` | 0 | 0 | 0 |
| 14 | `CC12CN3CC(C)(CN(C1)C3C(O)C(O)C(O)CO)C2` (centres undefined) | 0 | 0 | 0 |
| 15 | `COc1cccc(Nc2c(-c3ccc(O)c(OC)c3)nc3cnccn23)c1` | 0 | 0 | - |
| 16 | `Cc1cccc(Nc2c(-c3ccc(N(C)C)cc3)nc3ncccn23)c1` | 0 | 0 | 0 |
| 17 | `Cc1ccc2nc(NCc3ccc(F)cc3)c(-n3nc(C)cc3C)nc2c1` | 0 | 0 | 0 |
| 18 | `C=CCNc1nc(N(c2ccccc2)c2ccccc2)nc(-n2ccnc2)n1` | 0 | 0 | 0 |
| 19 | `COc1ccccc1CNc1ncccc1-c1nc(C)no1` | 0 | 0 | - |
| 20 | `Cc1cc(C)n(Cc2cccc(C(=O)N3CCC4(CCNCC4)CC3)c2)n1` | 0 | 0 | 0 |
| 21 | `NS(=O)(=O)c1ccc(/N=N/c2ccc(O)[nH]c2=O)cc1` | 0 | 0 | 0 |
| 22 | `COc1ccc(C2(C#N)CCC(C(=O)O)CC2)cc1OC1CCCC1` (centres undefined) | 0 | 0 | 0 |
| 23 | `COc1ccc(C)cc1NC1=NS(=O)(=O)C(c2cccc(Br)c2)=C1C` | 0 | 0 | - |
| 24 | `CC(C)N1CC(=Cc2ccccc2)C2=C(C1)C(c1ccccc1)C(C#N)=C(N)O2` (centres undefined) | 0 | 0 | 0 |
| 25 | `COc1ccc(CNCCc2ccc(F)cc2)cc1OC` | 0 | 0 | 0 |
| 26 | `COc1ccc2c(C)nc(Nc3nc(O)cc(-c4ccccc4)n3)nc2c1` | 0 | 0 | 0 |
| 27 | `O=C(C=Cc1ccccc1)NC(=Cc1ccco1)C(=O)NCCO` | 0 | 0 | 0 |
| 28 | `C=CCNc1oc(-c2ccc(S(=O)(=O)N3CCOCC3)cc2)nc1C#N` | 0 | 0 | - |
| 29 | `Cc1cc(C)c(NC(=O)Cn2nnc(C(=O)Nc3cccc(C)c3C)c2N)c(C)c1` | 0 | 0 | 0 |
| 30 | `CC1=NN(c2ccccc2)C(=S)C1=CNc1ccc(Cl)cc1` | 0 | 0 | 0 |
| 31 | `COCc1nc2ccccc2n1CC(O)COc1cccc(C)c1` (centres undefined) | 0 | 0 | - |
| 32 | `CCc1ccccc1NC(=O)c1nnn(CC(=O)Nc2cccc(C)c2C)c1N` | 0 | 0 | 0 |
| 33 | `Cc1ccc(-n2nc(CO)c(C(=O)NCCCO)n2)cc1C` | 0 | 0 | - |
| 34 | `Cc1ccc(NC(=O)N2CCN(C(=O)c3nonc3N)CC2)cc1Cl` | 0 | 0 | - |
| 35 | `OCC(O)Cn1c(COc2ccccc2)nc2ccccc21` (centres undefined) | 0 | 0 | - |
| 36 | `NN=C1C(Cl)=C(Cl)C(Cl)=C1Cl` | 0 | 0 | 0 |
| 37 | `Cc1cc(C)n2nc(NCc3ccccc3)nc2n1` | 0 | 0 | - |
| 38 | `COc1ccc(OC)c(C2C(C#N)=C(N)Oc3c2c(=O)n(C)c2ccccc32)c1` (centres undefined) | 0 | 0 | 0 |
| 39 | `C=CCC1(CO)CCCN(CC(C)(C)N)C1` (centres undefined) | 0 | 0 | 0 |
| 40 | `COC(=O)c1ccc(NC(=O)N2CCOCC2CO)cc1Cl` (centres undefined) | 0 | 0 | 0 |
| 41 | `Cc1c(Cl)c(C(=O)N2CC[C@H](N3CCOCC3)[C@H](CCCO)C2)nn1C` | 0 | 0 | 0 |
| 42 | `Cc1ccc(C)c(S(=O)(=O)N2CCCC(Cn3cc(CCO)nn3)C2)c1` (centres undefined) | 0 | 0 | 0 |
| 43 | `CNC(=O)[C@@H]1C[C@H](N)CN1C(=O)c1cc(-c2ccccc2)nc2ccccc12` | 0 | 0 | 0 |
| 44 | `O=C(Nc1cccc2cnccc12)N1CCOCC1CO` (centres undefined) | 0 | 0 | 0 |
| 45 | `Cc1n[nH]c(C)c1Cc1nc(-c2ccncc2)nn1CCO` | 0 | 0 | 0 |